Percent effect of library compounds

Sequences of proteins named here, by UniProt entry; tags and fusion partners are left off. Residues count along the entry.
UniProt Q8IDJ8, 1-583: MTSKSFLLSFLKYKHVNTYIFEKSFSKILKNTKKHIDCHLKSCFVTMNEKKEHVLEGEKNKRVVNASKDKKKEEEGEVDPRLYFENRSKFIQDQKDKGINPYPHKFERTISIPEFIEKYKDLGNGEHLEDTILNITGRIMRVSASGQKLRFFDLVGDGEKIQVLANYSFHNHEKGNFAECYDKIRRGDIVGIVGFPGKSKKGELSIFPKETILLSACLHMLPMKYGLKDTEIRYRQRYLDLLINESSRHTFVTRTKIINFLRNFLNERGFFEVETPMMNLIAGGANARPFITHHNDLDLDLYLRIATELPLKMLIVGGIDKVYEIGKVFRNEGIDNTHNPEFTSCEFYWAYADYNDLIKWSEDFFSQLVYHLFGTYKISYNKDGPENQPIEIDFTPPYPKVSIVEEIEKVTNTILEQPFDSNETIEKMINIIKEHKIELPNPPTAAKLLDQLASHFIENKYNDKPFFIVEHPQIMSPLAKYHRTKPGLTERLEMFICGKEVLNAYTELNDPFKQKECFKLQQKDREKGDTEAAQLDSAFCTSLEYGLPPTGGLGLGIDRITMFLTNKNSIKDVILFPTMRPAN

From ChEMBL document CHEMBL3988442, “University of Dundee, Small-Polar-MMV Screening Library” (2021).

A: 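Assay of Toxoplasma gondii numbers, read through their beta-galactosidase reporter with a colour substrate. Tested at 10 µM. The record gives no direction; the compounds picked for IC50 retests had high values, so higher reads as fewer parasites. About 67,000 compounds were tested under these conditions; 0.38% (about 260) showed 50% or more at least once.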
B: 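Whole-parasite assay of Trypanosoma brucei over 72 hours; the read-out is not stated. Tested at 30 µM. The record gives no direction; compounds that gave an IC50 in retests scored well above the rest, so higher reads as stronger inhibition. Values scatter widely below zero; nearly all retest evidence comes from the higher of the two concentrations used. About 64,000 compounds were tested under these conditions; 1.5% (about 940) showed 50% or more at least once.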
C: 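Cell assay of Leishmania donovani living inside macrophages; the read-out is not stated. Tested at 30 µM. Higher reads as stronger inhibition (inferred: compounds with an IC50 in retests scored well above the rest). About 69,000 compounds were tested under these conditions; 1.5% (about 1,000) showed 50% or more at least once.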
D: 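Lysine-tRNA ligase, Plasmodium falciparum 3D7 (UniProt Q8IDJ8). Enzyme assay of the cytosolic lysyl-tRNA synthetase in 384-well plates, read by luminescence. Compounds at 30 µM. Higher reads as stronger inhibition, judged from the few compounds that gave an IC50. Size under these conditions: about 69,000 compounds, about 49 of them at 50% or above in at least one test.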

Each number is a percent effect as filed.
The record does not define 0% and 100%; most values in the screen are far below 50% and negative numbers occur (in some assays of this library far below -100).
The compounds are a random part of those screened.
A dash means the value is not listed here; it may have been measured.

SMILES | A | B | C | D
O=C1CN(c2ccc(CNC(=O)NCCO)cc2)CCN1 | 6.415 | -6.977 | -0.9559 | 0.4244
Cc1nc(CN2CCC3(CC2)C(=O)N(C)CCN3C)cs1.O=C(O)C(F)(F)F.O=C(O)C(F)(F)F.O=C(O)C(F)(F)F | -42.37 | -19.22 | 11.03 | -
CSc1nccc(N2CCN(C)C3(CCC(=O)N(CC4CC4)CC3)C2)n1 (stereo not given) | 9.432 | 6.549 | 10.92 | 1.401
CNC(=O)CN1CCOC(c2ccccc2C(F)(F)F)C1 (stereo not given) | 0.2674 | 6.654 | 8.526 | 7.542
O=C(O)C(F)(F)F.O=C(O)C(F)(F)F.c1cncc(COCc2nnc3n2CCN(Cc2ccoc2)C3)c1 | -6.193 | -39.58 | -16.05 | -
CCc1cn[nH]c1C1CCN(c2cc(C)c3ccc(OC)cc3n2)CC1 | 10.74 | -38.31 | -2.583 | -2.737
CC(C)OC(=O)CNC(=O)Nc1ccc(-c2nc(C(C)C)no2)cc1 | -4.287 | -37.11 | -16.26 | 2.46
O=C(O)C(F)(F)F.[H][C@@]12C[C@H](C(=O)NCC3CC3)C[C@]1([H])OCCN2 | -7.831 | -110 | 20.79 | -
COCCO[C@H]1CCN(Cc2cccs2)[C@H]1Cc1cccnc1.O=C(O)C(F)(F)F.O=C(O)C(F)(F)F | 3.562 | 5.189 | 46.01 | -
O=C(NCCCn1cccn1)N1CCCC1c1ccncc1 (stereo not given) | -4.295 | -9.104 | 10.68 | 1.379
Cc1cc(CNC(=O)NCc2cccs2)ccc1S(C)(=O)=O | -18.24 | -49.7 | 9.715 | 2.966
CCCN(CCn1c(=O)oc2ccccc21)CC1CC1 | -0.1248 | -47.2 | 9.672 | 5.287
COc1ccccc1-c1noc(CCC(=O)NC(C)Cn2cccn2)n1 (stereo not given) | -0.7905 | -1.989 | 7.957 | 7.965
CCc1nnsc1C(=O)N1CCN(CC(O)CC)CC1 (stereo not given) | -6.992 | -3.94 | 19.41 | 12.2
N#CCCN(CCC#N)C(=O)CN1CCCC1Cc1cccc(F)c1 (stereo not given) | -4.95 | -15.52 | 34.53 | 9.887
[H][C@]12CC[C@]([H])(CN(C(=O)c3ccc(=O)[nH]c3)C1)N(Cc1ccccc1)C2 | -4.727 | -51.27 | 49.93 | -
CCC1CN(C(=O)NCCOc2ccc3c(c2)OCO3)CCO1 (stereo not given) | 0.5562 | 0.08511 | 17.74 | 11.99
CCN1CC(CN(C)Cc2nc(-c3ccc(F)cc3F)oc2C)CC1=O (stereo not given) | 19.99 | -16.3 | -7.587 | 1.383
CCCN1CCC(c2nc3ccc(NCc4cccnc4)cn3n2)CC1 | - | - | - | 6.31
Cc1nnc(CN(C)CC(=O)N2CCCN(C3CCCC3)CC2)n1C | 5.881 | -52.12 | 12.5 | 6.56
Cc1cnc(CN2CCCC(c3cc(C)[nH]n3)C2)cn1 (stereo not given) | -1.546 | -0.1084 | 24.22 | 0.3018
CC(C)n1nc(Cn2cccc2)c2c1CN(Cc1ccoc1)C2.O=C(O)C(F)(F)F | 5.585 | -69.05 | 3.018 | -
CCN(Cc1ccoc1)C(C(N)=O)c1ccc(C#N)cc1 (stereo not given) | -1.655 | -10.04 | 10.27 | 0.8466
CNC(=O)CN1CCO[C@H]2CN(CC3CC3)C[C@H]21 | - | - | - | 1.109
CCN1CCN(C(=O)C(C)N2CCN(Cc3nccn3C)CC2)CC1 (stereo not given) | 7.539 | 48.29 | 45.48 | 4.086
COCC1CC2(CCN(CC3CC3)CC2)CN1Cc1ccccn1 (stereo not given) | - | - | - | 2.518
CCOc1cccc(C(C)NC(=O)N2CCC3(CC2)OCCO3)c1 (stereo not given) | 9.521 | -9.01 | 7.272 | 3.211
[H][C@]12CC[C@]([H])(CN(Cc3ccncc3)C1)N(C(=O)CSc1ccccc1)C2 | 1.902 | -0.5491 | 14.29 | -
O=C(c1cc(Cl)c2c(c1)OCO2)N1CCN(c2ccccn2)CC1 | -0.5473 | -63.32 | 24.84 | 0.7998
CC(=O)N(Cc1ncc(C)o1)C1CCN(Cc2ccccc2F)C1 (stereo not given) | 13.64 | - | 25.01 | -0.09483
CC[C@H]1N(CC2CCOCC2)CCC[C@]12CCC(=O)N2.O=C(O)C(F)(F)F | 1.672 | -55.31 | 20.33 | -
CNS(=O)(=O)c1ccc(CNC(=O)c2ccccn2)cc1 | -11.14 | -10.33 | 2.007 | 7.893
CCOC(=O)CC1CCCCN1C(=O)c1cnc(C)cn1 (stereo not given) | -3.491 | -12.74 | -12.42 | 9.672
O=C(N1CCCC1)N1CCC2(CC1)CN(c1cccnc1)C(=O)CO2 | - | - | - | 2.635
C=C(C)CN(CC)Cc1nc(CC)no1 | 11.48 | -2.37 | 10.72 | -0.7855
CC(O)CN1CCN(C(=O)Cc2ccccc2Cl)CC1 (stereo not given) | -35.76 | - | 13.88 | 0.1601
CCNC(=O)N1CCc2ccc(NC(=O)NCc3ccsc3)cc21 | -15.98 | -13.85 | 37.98 | -1.47
CC(=O)NCCNC(=O)Nc1cc(C(C)(C)C)sc1C#N | -40.82 | -18.32 | 15.96 | 7.229

For reference, 2 entries once more:

* CCNC(=O)N1CCc2ccc(NC(=O)NCc3ccsc3)cc21 | A: -15.98%; B: -13.85%; C: 37.98%; D: -1.47%
* CC(C)OC(=O)CNC(=O)Nc1ccc(-c2nc(C(C)C)no2)cc1 | A: -4.287%; B: -37.11%; C: -16.26%; D: 2.46%